The text below walks through data of PubChem BioAssay AID1508600 (Functional Genomics Laboratory (NCATS/FGL), 2020).

Out of some 53,000 sequences screened, about 3,700 (7%) were called active.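 How the source made its calls: active means gene knockdowns whose robust z-score for IL-1 alpha signal is at least 2 or at most -2, so actives lie on both sides; inactive means the rest.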 The list shows a part of the results.

The nature of this assay: Components of the Cytosolic LPS Sensing Pathway: Gene Identification via Genome-wide siRNA Screen.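 Further: robust z of the log signal after scaling to non-targeting control siRNA wells of the plate.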 The conditions noted are these: RAW264.7 macrophages, IL-1a HTRF, actives lie on both sides, screened at 100 nM (by protocol), cells primed 5 h with Pam3CSK4 first. Put shortly:
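Using IL-1a HTRF as read-out, the screen measured release from RAW264.7 cells after 48h siRNA knockdown (100 nM), 5 h Pam3CSK4 priming and 24 h cytosolic LipidA. Values were expressed relative to negative-control wells as robust z-scores.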
Regarding GGAUCCUUCUCUGAAGCAGTT against Olfr657, the z-score is inactive: -0.39. In the case of GGAAGAUUUACAAAAACUGTT against Nudt18 it was inactive: -0.0754; in that of GGUGCUGAAGAUGACAUCCTT against Scai, inactive: 0.434. With GCUACAAUCUAGAACAAGATT against Olfr361, the z-score is inactive: -0.915. For CCUUCACUCUGUAAGGUGCTT against Card19, the z-score was inactive: -0.276. In the case of GGCGAAGGGCAAGAAUAAATT against Hes1 it was active: 2.16; in that of GGUCUCAAGGACAAAAAAGTT against Sult3a1, inactive: -1.48. Turning to GGCCAAUAUAGGUUAUAGATT against Anapc11, the z-score is inactive: -0.456. On to GCUAACUCUUCGGCAGGAATT against Sspo, for which the z-score is inactive: 1.62. Consider “GGUUCAAAUGUUCUCCAUATT against 9530080O11Rik”, for which the z-score is active: 2.55.

As to GGAUGAAUGUUGCUUGUGUTT against Arhgef37, the z-score was inactive: -0.243. Take GGUGCAUUUUCUAGAAUCATT against Usp45: the z-score was inactive: 0.933. Consider GGUGAAUUUCCUUCUACAUTT against Tas1r1, for which the z-score is inactive: -1.56. As to GCAUCAUGGUCACAAAUGGTT against Ncr1, the z-score is inactive: -0.613.

As for GGAGGAUCCACAUGAUGACTT against Fads6, the z-score was inactive: -1.48. On to GGCAUGGAGAGAAGAAAAGTT against Rassf7, for which the z-score is inactive: -0.433.

Turning to GGAGUGAACCUUUGAAAGUTT against Rbak, the z-score is inactive: 1.82. For GGCAAGAGAUCAUAAACUGTT against Neurl1b, the z-score was inactive: -0.421. Turning to GGUGAUGCAAGUGGUUCGGTT against Elmo3, the z-score is inactive: -0.523.

GGAUUUUAAUGUAGGAGAGTT against Pip4k2b: the z-score was inactive: -0.77. In the case of GGCCUUCAAGGUGUUUGAGTT against Flcn it was inactive: -1.61; in that of CGAUAAAAGAGAGAUGAUUTT against Rap1gds1, inactive: 0.699; in that of CGAAUAUCCAGAAAUCAAUTT against Sf1, inactive: -1.52.

Turning to GCCCUGGAGUCCUAAUAAATT against Pmvk, the z-score is inactive: -0.105. Regarding GGAAACUGGCUUAGCAAUGTT against Trappc4, the z-score is inactive: -0.333. Consider GCAGCAAUACAUCCUUCAUTT against Cdh1, for which the z-score is inactive: 1.12. As to GGUGAGGUUCAAACAUUCUTT against Sdf2, the z-score was inactive: 0.0627. For GGAGGUGUGGGUACCUUCUTT against Snx30, the z-score was inactive: -0.746. In the case of GCUGAACAUUAGCUUCAAUTT against Lrrc9 it was inactive: -1.42; in that of GGCAUGCAACUAUAUAGUUTT against Slfn4, inactive: 0.524; in that of GGGAAAUCUACUUUGCGUATT against Khdrbs3, inactive: 0.103. GCAUAGAAACCAUGCACAUTT against Acot2: the z-score is active: 3.28.

On to GGCACAAGAUUAUUUAAGUTT against Tmem68, for which the z-score was inactive: 0.362. In the case of GGAAAUGGUCCCUCUGUGUTT against Tspoap1 it was active: -2.99.

For the sequence GGUGGUUCUCAGCUGUGUATT against Arhgef18, the z-score was inactive: -1.08. For CGAUACCCAACUGUUGAAATT against Ap5m1, the z-score was inactive: 1.12. In the case of GGUCGACUUAAGAUAAUAATT against Itgb6 it was inactive: -0.294; in that of “UCCUAGAGUCAUCAUCAUATT against A530064D06Rik”, inactive: -0.44.

As to CGCGAAGGGAAGGGUUGUATT against Pfn4, the z-score is inactive: 0.625.

Regarding GGAUGGAAGCGUAAAUUUCTT against Angpt4, the z-score was inactive: 0.781. In the case of GCAUGGAGAGACAGUUAACTT against Ift74 it was inactive: 1.07; in that of GCUACAGGUAGACAUUCCATT against Ubn1, inactive: -0.184; in that of GGCAACAUAAUAAUUGCAGTT against Olfr1212, inactive: 0.635. In the case of GGUCAAACUUAGCGACAAUTT against Zdhhc8 it was inactive: 0.576; in that of GGCCAAACCAUCAUGCAAGTT against Nfya, inactive: 0.455; in that of GGACAUAGUAUACGAAAAUTT against Zfp341, inactive: 0.371. As to CCAUUUUGCCUGUGAUAUGTT against Olfr1254, the z-score is inactive: 0.022.

Regarding CCAAUUCGUGUUAAGGAACTT against Riox2, the z-score is inactive: 0.212. As for CCUGGUAAAAGACUGGGCUTT against Dnal1, the z-score is inactive: 1.76. In the case of GGAGGCAGCCAAAGAAAACTT against Bmp8a it was inactive: 0.462. As for GGCAAAUAGUGACCACACGTT against Dmp1, the z-score was inactive: -0.593.

Regarding GGACUUCAUCUCCAAACGCTT against Snx18, the z-score is inactive: 0.286. As for GGACGUGAACCAGGAUGUUTT against Cblc, the z-score was inactive: -0.754. In the case of CGAUGUGGACGAGAAGCUATT against Asap2 it was inactive: -0.702; in that of “GCGCAGGAUACCCUAUCUATT against 4930542C12Rik”, inactive: 0.52; in that of GGCUGGCAAUGUGAGCAGUTT against Gbx1, inactive: 0.914. In the case of GGUAUUGCUUUCACAUUAUTT against Efr3a it was inactive: 0.434; in that of GGGUGACUAUGAGAAGGAGTT against Lmx1b, inactive: -0.841. For the sequence CGCUCGUUACCUAAAGCAGTT against Nwd1, the z-score is active: -2.78. Regarding GGACCUAUAAGAACAGUGATT against Psmf1, the z-score was inactive: 0.436. With CCAUUGAAAAACUGGACAGTT against Olfr1463, the z-score is active: 3.26. With GCUACGCAAUAAGACCACATT against Lamc3, the z-score is active: 2.25. Consider GGGACCAAGAAGGAUAACUTT against Flrt1, for which the z-score was inactive: 1.4. In the case of GCUGGCCUUAUGUAAAUCUTT against Galc, the z-score is inactive: -0.756. Take GGCAUCUGUAAGCCAGAUCTT against Acad10: the z-score is inactive: -0.306. Take GGCUACGGUGAUAGAGAUGTT against Rbmxl1: the z-score is inactive: 1.99. As for GGAAGAUGAUGAUCAAACUTT against Zbed4, the z-score is inactive: -0.828.

On to GCCACGACCUGGAACAACUTT against Taf6l, for which the z-score is inactive: -0.479.

GGAGAAUGAAGAGUUAGACTT against Nfu1: the z-score was inactive: 0.608. For the sequence CCAAGUUUAACAUCCAGGGTT against Pfkm, the z-score was inactive: -0.126. In the case of GGGAUUGGCUACGACUUCATT against Cbs it was active: 2.06; in that of GGUUUGUCAACAAGUGUCATT against Dicer1, active: -2.17. As for GCCACGUUCAAACAGUACCTT against Slc1a7, the z-score was active: 3.94. With GUCCCUGAACCUGUGGUAUTT against Emp3, the z-score is inactive: 1.26. Regarding GGAACAGAGAUAUGAAACATT against Olfr738, the z-score is active: -2.4. In the case of GGCUCCAAUAAAGUGCCUUTT against Elf3 it was inactive: 1.46; in that of GGUGAUACAGAUUCUAGGUTT against Spaca6, inactive: -0.434; in that of GCUAUUGGUGUAUUUCAAUTT against Tecrl, inactive: -0.876. As to UGACGGUUCUAUUGAUUACTT against Smim19, the z-score was inactive: -1.64. On to GGCUGACCCUAGAAAGACATT against Lrrc49, for which the z-score is inactive: 1.18. For GGAAAAAAGAAAUCAGGAUTT against Luc7l, the z-score was inactive: 0.278. In the case of CCUAACUGCUAAAUGGUGUTT against Irf1 it was inactive: -0.168; in that of GGAAAUUUGUGAAAGGACATT against Gata4, inactive: -0.542. For GCUUGUAAUGCAGGUUUAATT against Wipf2, the z-score is inactive: 1.94. In the case of GCCUAAUAAGGAGAAACCATT against Car9 it was inactive: -1.42; in that of CCGCGUGUCUGCUAUCAUCTT against Wdfy1, inactive: 0.418.

Take GUGCUACAUUCUGUCGGGATT against Tm2d3: the z-score was inactive: 1.17. In the case of “GCGAUACAAAGCUAAUCCCTT against 3110009E18Rik” it was inactive: -1.13; in that of GGUGCAUGAUUUCAGAAUATT against Rccd1, inactive: 0.454. As to GGGACAAUGAAUGUGAUCUTT against Adam39, the z-score is active: -2.81. For the sequence GGAGAACCUCAAUGACGUGTT against Prtn3, the z-score was inactive: -1.08.

Regarding GGAAAUAAUGACCAAGUACTT against Grk5, the z-score is inactive: -1.32. Consider GGAGUCCAUUUCAUGUUUUTT against Tiparp, for which the z-score was inactive: -1.56. With GCAUCAGAUUAUCUCACUGTT against Mtrf1l, the z-score is inactive: 0.261. Consider CCAUUCUCAGGCAAAUACUTT against Pid1, for which the z-score was active: 2.11. Take GGCCACAUGAGAUUGCUUUTT against Tnfrsf13c: the z-score was inactive: -0.537.

For GCGCGAGUUAUUGAUUCCGTT against Wee1, the z-score is inactive: -0.561.

As for GGACAAGAAGUGUGUAUACTT against Mrc2, the z-score was inactive: -1.77. In the case of GGAGAUUGAGGAGGAGGCUTT against Incenp it was inactive: -1.41; in that of GCCUGUCAGAUAAGUUUAATT against Rbpms2, inactive: 0.196. In the case of GGAAAGCUUCAAAAUGGUGTT against Foxj2, the z-score was inactive: -1.26. For CCAUUGAAAUUUCCAUCUGTT against Baalc, the z-score is inactive: 0.115. As for GGAAAAACUGGGAAUGGCUTT against Fbln7, the z-score is inactive: -0.0905.

For the sequence GGCUGAUGUGUUGAAGAUUTT against Cetn3, the z-score was inactive: -0.397. In the case of GGCUUUUGUUUCUUAUGUCTT against Gbp9 it was inactive: -0.871; in that of GGUAUCUUUAGGUUUCUGGTT against Vmn2r37, inactive: 0.499; in that of GGGUGUCUUUCCUGUGUGATT against Pkmyt1, inactive: -0.804.
